Assay results as given in PMC6057324.
These are yes or no findings as the source states them, for the method shown. In cells and extracts the contact can be indirect. Some entries that bind do so weakly or less than the wild type. Tags and fused reporters may be left off the sequences shown.

Protein sequences, listed by entry. Tags and fused reporters are not part of them.
UniProt Q9UJV9: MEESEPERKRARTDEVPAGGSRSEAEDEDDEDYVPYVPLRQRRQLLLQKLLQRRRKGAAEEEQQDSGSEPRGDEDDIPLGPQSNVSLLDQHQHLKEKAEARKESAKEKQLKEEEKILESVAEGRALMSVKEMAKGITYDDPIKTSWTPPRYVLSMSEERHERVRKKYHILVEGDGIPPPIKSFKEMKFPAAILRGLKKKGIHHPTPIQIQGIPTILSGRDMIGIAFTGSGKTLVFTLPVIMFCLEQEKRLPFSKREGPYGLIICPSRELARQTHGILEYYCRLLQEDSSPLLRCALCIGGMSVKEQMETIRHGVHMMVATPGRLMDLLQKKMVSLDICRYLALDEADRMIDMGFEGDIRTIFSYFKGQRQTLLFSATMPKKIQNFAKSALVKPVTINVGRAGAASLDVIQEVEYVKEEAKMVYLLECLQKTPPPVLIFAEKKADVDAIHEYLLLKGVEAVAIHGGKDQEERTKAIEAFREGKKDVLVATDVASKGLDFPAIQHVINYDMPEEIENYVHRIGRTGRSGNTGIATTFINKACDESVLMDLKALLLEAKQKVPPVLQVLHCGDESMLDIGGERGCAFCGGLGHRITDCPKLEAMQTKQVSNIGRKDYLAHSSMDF
UniProt Q8N884: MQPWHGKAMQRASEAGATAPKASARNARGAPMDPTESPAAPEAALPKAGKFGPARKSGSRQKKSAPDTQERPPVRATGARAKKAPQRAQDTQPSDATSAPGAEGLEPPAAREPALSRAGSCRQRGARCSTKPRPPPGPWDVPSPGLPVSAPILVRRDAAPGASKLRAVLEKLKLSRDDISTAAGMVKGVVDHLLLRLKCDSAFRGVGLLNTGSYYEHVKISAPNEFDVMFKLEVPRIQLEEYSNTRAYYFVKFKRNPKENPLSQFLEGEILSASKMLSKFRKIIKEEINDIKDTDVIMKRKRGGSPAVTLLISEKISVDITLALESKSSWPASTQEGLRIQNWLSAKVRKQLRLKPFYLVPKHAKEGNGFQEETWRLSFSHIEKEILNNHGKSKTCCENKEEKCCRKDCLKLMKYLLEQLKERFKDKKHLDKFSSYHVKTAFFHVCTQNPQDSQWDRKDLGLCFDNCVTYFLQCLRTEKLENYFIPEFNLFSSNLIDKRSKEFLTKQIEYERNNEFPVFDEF
UniProt Q7Z434: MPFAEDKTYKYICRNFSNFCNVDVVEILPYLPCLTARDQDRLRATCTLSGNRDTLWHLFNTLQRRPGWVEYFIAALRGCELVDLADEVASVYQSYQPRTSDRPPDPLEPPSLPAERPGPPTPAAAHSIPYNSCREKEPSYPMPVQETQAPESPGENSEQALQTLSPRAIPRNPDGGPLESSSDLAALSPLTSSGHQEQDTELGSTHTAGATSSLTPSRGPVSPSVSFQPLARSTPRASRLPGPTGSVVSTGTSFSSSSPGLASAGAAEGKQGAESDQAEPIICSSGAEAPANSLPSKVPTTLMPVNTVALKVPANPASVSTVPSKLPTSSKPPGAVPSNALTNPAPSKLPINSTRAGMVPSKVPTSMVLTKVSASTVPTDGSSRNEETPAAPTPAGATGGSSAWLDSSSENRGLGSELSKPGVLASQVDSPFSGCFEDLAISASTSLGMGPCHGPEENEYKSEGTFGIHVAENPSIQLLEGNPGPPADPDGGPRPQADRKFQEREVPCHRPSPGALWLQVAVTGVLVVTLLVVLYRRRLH
UniProt Q86WV6: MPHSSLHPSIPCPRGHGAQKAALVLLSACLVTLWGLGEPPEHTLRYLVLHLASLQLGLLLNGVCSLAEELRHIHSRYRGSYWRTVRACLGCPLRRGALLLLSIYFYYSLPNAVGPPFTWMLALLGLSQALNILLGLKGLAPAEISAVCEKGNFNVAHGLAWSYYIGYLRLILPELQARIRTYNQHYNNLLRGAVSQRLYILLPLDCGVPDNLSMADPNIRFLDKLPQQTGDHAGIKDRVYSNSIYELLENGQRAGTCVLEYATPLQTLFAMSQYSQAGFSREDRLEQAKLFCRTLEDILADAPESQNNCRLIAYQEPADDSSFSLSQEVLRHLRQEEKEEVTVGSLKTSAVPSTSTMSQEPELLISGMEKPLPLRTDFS

target: T1, HA-tagged SLC15A3 (UniProt Q8IY34); experiment: co-IP; 293T cotransfected with HA-SLC15A3 and Flag/DDK1-tagged partner; lysis in 20 mM Tris-HCl pH 7.4, 150 mM NaCl, 1 mM EDTA, 1% Triton X-100; anti-HA antibody and protein A/G plus agarose, 4°C, one hour; washed three times in lysis buffer with 0.5 M NaCl; Western blot for Flag/DDK1 or HA
T1 sequence: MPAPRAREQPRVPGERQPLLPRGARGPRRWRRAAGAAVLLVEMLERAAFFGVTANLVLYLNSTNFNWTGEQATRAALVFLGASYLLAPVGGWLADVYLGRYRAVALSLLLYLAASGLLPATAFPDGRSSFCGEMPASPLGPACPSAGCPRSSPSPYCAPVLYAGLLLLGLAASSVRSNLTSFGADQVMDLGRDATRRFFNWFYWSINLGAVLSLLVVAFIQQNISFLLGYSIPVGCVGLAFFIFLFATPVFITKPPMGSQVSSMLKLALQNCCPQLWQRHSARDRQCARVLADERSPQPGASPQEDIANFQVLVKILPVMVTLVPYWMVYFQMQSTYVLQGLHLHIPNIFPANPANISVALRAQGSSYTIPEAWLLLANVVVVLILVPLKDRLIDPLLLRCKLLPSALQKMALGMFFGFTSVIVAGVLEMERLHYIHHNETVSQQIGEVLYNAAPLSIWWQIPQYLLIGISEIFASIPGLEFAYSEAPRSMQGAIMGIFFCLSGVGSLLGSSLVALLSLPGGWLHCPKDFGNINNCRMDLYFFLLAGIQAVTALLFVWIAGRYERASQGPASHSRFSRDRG

Substance | binding
Flag/DDK1-tagged DDX41 (from UniProt Q9UJV9 1-622) | binds
Flag/DDK1-tagged cGAS (from UniProt Q8N884 1-522) | binds
Myc-DDK1-tagged MAVS (from UniProt Q7Z434 1-540) | binds
Myc-DDK1-tagged STING (from UniProt Q86WV6 1-379) | binds
